No constants are given. Whether binding was seen depends on the method and setting. In cells and extracts the contact can be indirect. Some entries that bind do so weakly or less than the wild type. Where a sequence is shown, tags or fusion partners need not be part of it.
Molecular target: T1, RND3 flag tagged protein (pCMV-Flag-RhoE) expressed in U87 cells (human) (UniProt P61587)
T1 sequence: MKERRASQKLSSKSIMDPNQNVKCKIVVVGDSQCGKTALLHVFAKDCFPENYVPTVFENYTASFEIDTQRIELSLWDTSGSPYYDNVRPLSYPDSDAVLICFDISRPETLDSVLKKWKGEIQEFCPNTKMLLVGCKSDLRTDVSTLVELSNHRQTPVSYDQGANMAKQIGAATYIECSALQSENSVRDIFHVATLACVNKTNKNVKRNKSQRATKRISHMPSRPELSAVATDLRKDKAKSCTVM
Assay: co-IP; U87 cells transfected with RND3-Flag or Flag; lysis in 20 mM Tris-HCl pH 7.4, 150 mM NaCl, 1 mM EGTA, 1 mM EDTA, 1% Triton X-100; lysates incubated with 2 ug monoclonal anti-Flag (Sigma M2) for 1 h at 4°C, collected on protein G-Sepharose, western blot

binding: binds
B1: MCM3 (protein, UniProt P25205 1-808)
chain: MAGTVVLDDVELREAQRDYLDFLDDEEDQGIYQSKVRELISDNQYRLIVNVNDLRRKNEKRANRLLNNAFEELVAFQRALKDFVASIDATYAKQYEEFYVGLEGSFGSKHVSPRTLTSCFLSCVVCVEGIVTKCSLVRPKVVRSVHYCPATKKTIERRYSDLTTLVAFPSSSVYPTKDEENNPLETEYGLSVYKDHQTITIQEMPEKAPAGQLPRSVDVILDDDLVDKAKPGDRVQVVGTYRCLPGKKGGYTSGTFRTVLIACNVKQMSKDAQPSFSAEDIAKIKKFSKTRSKDIFDQLAKSLAPSIHGHDYVKKAILCLLLGGVERDLENGSHIRGDINILLIGDPSVAKSQLLRYVLCTAPRAIPTTGRGSSGVGLTAAVTTDQETGERRLEAGAMVLADRGVVCIDEFDKMSDMDRTAIHEVMEQGRVTIAKAGIHARLNARCSVLAAANPVYGRYDQYKTPMENIGLQDSLLSRFDLLFIMLDQMDPEQDREISDHVLRMHRYRAPGEQDGDAMPLGSAVDILATDDPNFSQEDQQDTQIYEKHDNLLHGTKKKKEKMVSAAFMKKYIHVAKIIKPVLTQESATYIAEEYSRLRSQDSMSSDTARTSPVTARTLETLIRLATAHAKARMSKTVDLQDAEEAVELVQYAYFKKVLEKEKKRKKRSEDESETEDEEEKSQEDQEQKRKRRKTRQPDAKDGDSYDPYDFSDTEEEMPQVHTPKTADSQETKESQKVELSESRLKAFKVALLDVFREAHAQSIGMNRLTESINRDSEEPFSSVEIQAALSKMQDDNQVMVSEGIIFLI
